Source: patent US20080305559A1, “Non-Competitive Immunoassays to Detect Small Molecules” (priority 2005, published 2008)

Test system: molinate-MoAb 14D7 immunocomplex
Assay: Noncompetitive phage ELISA (PHAIA) for molinate
Assay type: binding
Description: In a similar way that the IC50 (the analyte concentration producing 50% inhibition) is used to denote the sensitivity of competitive methods, we refer to the concentration of analyte producing 50% saturation (SC50) in noncompetitive assays as a practical parameter to compare the sensitivity of our assays. […] For each of these clones, the assay conditions were optimized as described previously. […] These differences highlight the importance of the residues that flank the WDT consensus sequence of the selected peptides. This can be seen in the case of the S1 and S4 peptide sequences, which only differ in two amino acids and yield assays with SC50 of 5 and 32 ng/ml, respectively.
Nunc-Immuno™ Maxi-Sorp™ plates were coated with MoAb 14D7 or molinate-MoAb 14D7 immunocomplex as described previously. The wells were blocked with 5% skimmed milk PBS, and washed three times with PBST. […] The enzymatic reaction was stopped after 15-20 min by the addition of 50 μl of 2 M H2SO4, and the absorbance at 450 nm (corrected at 600 nm) was read in a microtiter plate reader (Multiskan MS, Labsystems). The supernatants showing high readings in wells coated with the immunocomplex and low response in antibody coated wells were prepared as stabilized phage suspensions (see below), and use for further analysis. […]

C S T W D T T G W C (CSTWDTTGWC; phage-displayed on pVIII, cyclic) [1M]
DL (lower detection limit) (molinate, zero standard plus three times its standard deviation): 0.73 ng/mL | sensitivity relative to the competitive ELISA (versus competitive ELISA IC50=69.2±1.4 ng/ml with the same MoAb): about 14 times
